Laboratory results: PubChem BioAssay AID743458 (Peter MacCallum Cancer Centre, 2014)
Aim: 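Identify genes whose loss lifts vorinostat resistance in colon cancer cells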 (follow-up of hits). Cells: human HCT116-VR colon cancer cells made resistant to vorinostat. Reagent: single siRNA or pool against human genes, 25 nM per single siRNA. Timing: about 72 h after transfection, including 24 h of drug. Conditions: vorinostat, 2.5 µM final, for 24 h. Detection: 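Live-cell fluorescent viability and luminescent caspase 3/7 activity after vorinostat treatment, background subtracted, mean of duplicate plates, as fold change over mock-transfected wells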. Direction: viability relative to mock: higher = more living cells than mock; caspase activity relative to mock: higher = more apoptosis than mock. Hit rule: 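An siRNA counts as active if classed as reduced viability or as caspase activation, otherwise inactive; a hit class needed wells that remained healthy in the absence of drug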.
This is a random part of about 1,800 reagents. 732 of them (41%) were called active. 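Calls are per siRNA reagent; a gene was deemed confirmed only if most of its four siRNAs scored.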 A number with no mark means an inactive call. Reagents against one gene are numbered here.

| gene | reagent | viability relative to mock | caspase activity relative to mock | viability hit class | caspase hit class |
| --- | --- | --- | --- | --- | --- |
| HYAL2 (hyaluronidase 2) | 1 | 0.97 | 2.28 | no change | no change |
| HYAL2 (hyaluronidase 2) | 2 | 0.56 (active) | 6.38 | reduced viability | caspase activation |
| HYAL2 (hyaluronidase 2) | 3 | 0.47 (active) | 2.06 | reduced viability | no change |
| HYAL2 (hyaluronidase 2) | 4 | 0.86 | 1.6 | no change | no change |
| PPIL2 (peptidylprolyl isomerase like 2) | 1 | 0.95 | 1.1 | no change | no change |
| PPIL2 (peptidylprolyl isomerase like 2) | 2 | 0.56 (active) | 0.72 | reduced viability | no change |
| PPIL2 (peptidylprolyl isomerase like 2) | 3 | 0.84 | 1.35 | no change | no change |
| PPIL2 (peptidylprolyl isomerase like 2) | 4 | 1.03 | 1.32 | no change | no change |
| GRP (gastrin releasing peptide) | 1 | 0.11 | 1.38 | no change | no change |
| GRP (gastrin releasing peptide) | 2 | 0.62 (active) | 3.18 | no change | caspase activation |
| GRP (gastrin releasing peptide) | 3 | 0.79 | 2.48 | no change | no change |
| GRP (gastrin releasing peptide) | 4 | 0.66 | 0.98 | no change | no change |
| EXOSC5 (exosome component 5) | 1 | 0.65 | 1.31 | no change | no change |
| EXOSC5 (exosome component 5) | 2 | 0.64 | 2.24 | no change | no change |
| EXOSC5 (exosome component 5) | 3 | 0.67 | 0.84 | no change | no change |
| EXOSC5 (exosome component 5) | 4 | 0.17 (active) | 3 | reduced viability | caspase activation |
| FOXL1 (forkhead box L1) | 1 | 1.16 | 1.42 | no change | no change |
| FOXL1 (forkhead box L1) | 2 | 0.65 (active) | 4.32 | no change | caspase activation |
| FOXL1 (forkhead box L1) | 3 | 0.86 | 1.96 | no change | no change |
| FOXL1 (forkhead box L1) | 4 | 0.66 | 2.46 | no change | no change |
| MLIP (muscular LMNA interacting protein) | 1 | 0.34 (active) | 3.4 | reduced viability | caspase activation |
| MLIP (muscular LMNA interacting protein) | 2 | 1.03 | 1.03 | no change | no change |
| MLIP (muscular LMNA interacting protein) | 3 | 0.46 | 4.1 | no change | no change |
| MLIP (muscular LMNA interacting protein) | 4 | 0.88 (active) | 2.84 | no change | caspase activation |
| TMPRSS11F (transmembrane serine protease 11F) | 1 | 0.65 (active) | 2.98 | no change | caspase activation |
| TMPRSS11F (transmembrane serine protease 11F) | 2 | 1.08 | 1.15 | no change | no change |
| TMPRSS11F (transmembrane serine protease 11F) | 3 | 0.2 (active) | 3.52 | reduced viability | caspase activation |
| TMPRSS11F (transmembrane serine protease 11F) | 4 | 0.77 | 0.78 | no change | no change |

Hits (from the list above):
| gene | reagent | viability relative to mock | caspase activity relative to mock | viability hit class | caspase hit class |
| --- | --- | --- | --- | --- | --- |
| HYAL2 (hyaluronidase 2) | 2 | 0.56 (active) | 6.38 | reduced viability | caspase activation |
| HYAL2 (hyaluronidase 2) | 3 | 0.47 (active) | 2.06 | reduced viability | no change |
| PPIL2 (peptidylprolyl isomerase like 2) | 2 | 0.56 (active) | 0.72 | reduced viability | no change |
| GRP (gastrin releasing peptide) | 2 | 0.62 (active) | 3.18 | no change | caspase activation |
| EXOSC5 (exosome component 5) | 4 | 0.17 (active) | 3 | reduced viability | caspase activation |
| FOXL1 (forkhead box L1) | 2 | 0.65 (active) | 4.32 | no change | caspase activation |
| MLIP (muscular LMNA interacting protein) | 1 | 0.34 (active) | 3.4 | reduced viability | caspase activation |
| MLIP (muscular LMNA interacting protein) | 4 | 0.88 (active) | 2.84 | no change | caspase activation |
| TMPRSS11F (transmembrane serine protease 11F) | 1 | 0.65 (active) | 2.98 | no change | caspase activation |
| TMPRSS11F (transmembrane serine protease 11F) | 3 | 0.2 (active) | 3.52 | reduced viability | caspase activation |

The results go on.
| gene | reagent | viability relative to mock | caspase activity relative to mock | viability hit class | caspase hit class |
| --- | --- | --- | --- | --- | --- |
| FAM86B1 | 1 | 0.67 | 1.68 | no change | no change |
| FAM86B1 | 2 | 0.84 (active) | 4.17 | no change | caspase activation |
| FAM86B1 | 3 | 0.98 | 1.18 | no change | no change |
| FAM86B1 | 4 | 0.73 (active) | 4.21 | no change | caspase activation |
| YJU2B (YJU2 splicing factor homolog B) | 1 | 0.94 | 1.17 | no change | no change |
| YJU2B (YJU2 splicing factor homolog B) | 2 | 0.52 (active) | 2.29 | reduced viability | no change |
| YJU2B (YJU2 splicing factor homolog B) | 3 | 0.82 | 1.84 | no change | no change |
| YJU2B (YJU2 splicing factor homolog B) | 4 | 0.91 (active) | 4.16 | no change | caspase activation |
| EIF4A1 (eukaryotic translation initiation factor 4A1) | 1 | 0.48 (active) | 0.64 | reduced viability | no change |
| EIF4A1 (eukaryotic translation initiation factor 4A1) | 2 | 0.55 (active) | 1.13 | reduced viability | no change |
| EIF4A1 (eukaryotic translation initiation factor 4A1) | 3 | 0.54 (active) | 1.41 | reduced viability | no change |
| EIF4A1 (eukaryotic translation initiation factor 4A1) | 4 | 0.44 (active) | 0.46 | reduced viability | no change |
| CEP44 (centrosomal protein 44) | 1 | 0.96 | 1.22 | no change | no change |
| CEP44 (centrosomal protein 44) | 2 | 0.76 | 0.87 | no change | no change |
| CEP44 (centrosomal protein 44) | 3 | 0.94 | 1.06 | no change | no change |
| CEP44 (centrosomal protein 44) | 4 | 0.38 (active) | 5.87 | reduced viability | caspase activation |
| RPS7 (ribosomal protein S7) | 1 | 0.23 | 1.7 | no change | no change |
| RPS7 (ribosomal protein S7) | 2 | 0.29 (active) | 0.52 | reduced viability | no change |
| RPS7 (ribosomal protein S7) | 3 | 0.26 (active) | 0.45 | reduced viability | no change |
| RPS7 (ribosomal protein S7) | 4 | 0.22 (active) | 0.62 | reduced viability | no change |
| RNF121 (ring finger protein 121) | 1 | 0.77 (active) | 3.81 | no change | caspase activation |
| RNF121 (ring finger protein 121) | 2 | 0.91 | 1.89 | no change | no change |
| RNF121 (ring finger protein 121) | 3 | 0.97 | 1.49 | no change | no change |
| RNF121 (ring finger protein 121) | 4 | 0.72 | 2.31 | no change | no change |
| UTP3 (UTP3 small subunit processome component) | 1 | 0.72 | 2.06 | no change | no change |
| UTP3 (UTP3 small subunit processome component) | 2 | 0.61 | 2.26 | no change | no change |
| UTP3 (UTP3 small subunit processome component) | 3 | 0.6 (active) | 3.21 | no change | caspase activation |
| UTP3 (UTP3 small subunit processome component) | 4 | 0.2 (active) | 2.17 | reduced viability | no change |
| POLR2I (RNA polymerase II subunit I) | 1 | 0.46 (active) | 5.87 | reduced viability | caspase activation |
| POLR2I (RNA polymerase II subunit I) | 2 | 0.6 (active) | 4.2 | no change | caspase activation |
| POLR2I (RNA polymerase II subunit I) | 3 | 0.64 | 1.96 | no change | no change |
| POLR2I (RNA polymerase II subunit I) | 4 | 0.63 (active) | 4.23 | no change | caspase activation |
